The list shows a part of the results. The main result of the screen is listed elsewhere. These columns were measured beside it and carry no call. Most of these compounds were active or inconclusive in the main read-out, so they are no random draw. Words in brackets tell the shape of the fitted curve; partial curves, single points and poor fits give uncertain potencies.
Assay: qHTS Assay for Lipid Storage Modulators in Drosophila S3 Cells;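 as to cell number change: cells counted by Cell Tracker Red CMTPX staining in the red channel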
Conditions: BODIPY lipid droplet fluorescence, 18-24 h; for cell number change: measured here: cell count max response, cells fed with added oleic acid
Outline: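 Drosophila S3 cells loaded with oleic acid (400 uM, as added) and compounds at several concentrations; lipid droplets imaged by 488-nm laser-scanning cytometry, 500–530 nm intensity and object ratio to cell channel. Percent activity normalized to 20 uM Triacsin C.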

[1] = measured here: lipid fluorescence (Fed channel) AC50, cells fed with added oleic acid
[2] = measured here: cell number channel AC50, cells fed with added oleic acid

| Structure (SMILES) | AC50 [1] | cell number change [%] | AC50 [2] |
| --- | --- | --- | --- |
| Cc1cccc(-n2c(/C=C/c3ccc([N+](=O)[O-])o3)nc3ccccc3c2=O)c1 | 7.31 µM [falling, partial curve, poor fit] |  |  |
| COCCOC(=O)c1c(N)n(Cc2ccc(OC)cc2)c2nc3ccccc3nc12 |  | -3.64 |  |
| O=C(NCc1cccnc1)Nc1ccc([N+](=O)[O-])cc1 |  | 9.63 |  |
| CN1CCN(Cc2ccc(OC(F)(F)F)cc2)CC1 | 25.9 µM [falling, partial curve, poor fit] |  | 0.366 µM [falling, partial curve, poor fit] |
| Cc1cccc(N2C(=O)NC(=O)/C(=C\c3cccn3-c3ccc(Cl)cc3)C2=O)c1 | 16.4 µM [falling, single point] | -25.4 |  |
| C=C1C(=O)O[C@H]2C[C@@H](C)[C@@H]3C=CC(=O)[C@@]3(C)C[C@H]12 | 18.4 µM [falling, partial curve] | -59.7 | 18.4 µM [falling, single point] |
| C1=C(c2ccccc2)CCNC1 | 0.0326 µM [rising, full curve, poor fit] | 8.32 |  |
| CCOc1ccc2nc(N=Nc3c(O)[nH]c(=S)[nH]c3=O)sc2c1 | 0.651 µM [rising, full curve] | -9.23 | 0.58 µM [rising, full curve] |
| O=C1CC(=O)N(c2cccc(Br)c2)C(=O)N1 | 0.58 µM [rising, single point] | -31.9 |  |
| CCOC(=O)C1CN(C)CCC1=O (stereo unspecified) | 32.6 µM [falling, partial curve, poor fit] | 10.1 |  |
| CC1=CC(=O)C2=C(C)C[C@H](O)[C@@H]3[C@H](OC(=O)[C@H]3C)[C@@H]12 | 1.64 µM [rising, partial curve] | 15.9 |  |
| COC(=O)C1=C(c2ccc(C(C)=O)cc2)C[C@@H]2CC[C@H]1N2C(=O)NCc1ccc(F)cc1 | 0.164 µM [rising, full curve, poor fit] | -13.9 |  |
| COc1cccc(N=Nc2c(O)[nH]c(=S)[nH]c2=O)c1 | 2.06 µM [falling, partial curve, poor fit] | -8.39 |  |
| COC(=O)C1=C(c2cccc(OCc3ccccc3)c2)C[C@@H]2CC[C@H]1N2C(=O)NCc1cc(C)oc1C(F)(F)F |  |  | 0.146 µM [falling, full curve, poor fit] |
| Cc1cc(C=C2C(=O)N(C)C(=S)N(C)C2=O)c(C)n1C1CCCC1 | 6.51 µM [falling, single point] | 14.8 | 0.411 µM [falling, full curve, poor fit] |
| COC(=O)C1=C(c2ccc(Cl)c(C(F)(F)F)c2)C[C@@H]2CC[C@H]1N2C(=O)NCCOc1ccccc1 | 0.731 µM [falling, full curve] | -45.4 | 20.6 µM [falling, single point] |
| CCC(C)C12CN3CCN(CC(C)(C3)C1=O)C2 (stereo unspecified) |  | 39.4 | 20.6 µM [rising, single point] |
| CCC1(c2cccc(O)c2)CCCCN(C)C1 (stereo unspecified) | 0.461 µM [falling, full curve] | -31.6 | 3.66 µM [falling, partial curve, poor fit] |
| O=c1cccc2n1CC1CC2CN(C(c2cccc(F)c2)c2sc3ncnn3c2O)C1 (stereo unspecified) |  | -63.7 | 18.4 µM [falling, single point] |

| Structure (SMILES) | AC50 [1] | cell number change [%] | AC50 [2] |
| --- | --- | --- | --- |
| Cc1oc(-c2ccccc2Cl)nc1CN1C(=O)CN=C(c2ccccc2)c2ccccc21 |  | 31 | 2.31 µM [rising, full curve, poor fit] |
| C1CCC(NC2CCCCC2)CC1 | 4.61 µM [rising, single point] | 15.8 |  |
| COC(=O)c1ccccc1OP(=O)(c1cccc([N+](=O)[O-])c1)c1cccc([N+](=O)[O-])c1 | 6.51 µM [falling, single point] | 5.29 |  |
| CC(C)N1C(=O)NC(=O)C2(Cc3cc([N+](=O)[O-])ccc3N(C)C2c2ccccc2)C1=O (stereo unspecified) | 23.1 µM [falling, single point] | -17.6 |  |
| O=C1NS(=O)c2cc([N+](=O)[O-])cc([N+](=O)[O-])c21 (stereo unspecified) | 2.31 µM [falling, single point] |  | 0.146 µM [falling, full curve, poor fit] |
| C=CCn1c(O)c(C=Nc2ccc(OC)cc2C)c(=O)[nH]c1=O |  | -30.6 |  |
| Cc1nc2ccccc2c(=O)n1-c1ccccc1[N+](=O)[O-] | 0.82 µM [falling, single point] | -4.42 |  |
| CCOP(=O)(C#CC(C)(C)C)C(C)(O)c1ccccc1 (stereo unspecified) | 3.26 µM [falling, partial curve] | 3.91 |  |
| COC(=O)C1=C(c2ccc(F)cc2OCc2ccccc2)C[C@@H]2CC[C@H]1N2C(=O)NCc1ccc(F)cc1 | 2.91 µM [falling, single point] | 6.14 |  |
| COc1ccc(CCNCc2ccncc2)cc1 | 0.13 µM [falling, full curve, poor fit] | -48.4 | 8.2 µM [falling, partial curve, poor fit] |
| Cc1ccc(C(O)(c2ccc(C)c(C)c2)C2CN3CCC2CC3)cc1C (stereo unspecified) | 1.03 µM [falling, full curve, poor fit] |  | 0.13 µM [falling, full curve, poor fit] |
| C=C[C@]1(C)C[C@H]1[C@H](NP(=O)(c1ccccc1)c1ccccc1)c1ccccc1 |  |  | 6.51 µM [falling, single point] |
| CC(C)C1(C)N=C(c2ncccc2C(=O)O)NC1=O (stereo unspecified) |  | 5.83 |  |
| COc1ccc(C(=O)C2CCCN(Cc3ccc(F)cc3F)C2)cc1F (stereo unspecified) |  | -0.343 |  |
| C=CCN1C(=O)/C(=C/c2ccc(N3CCOCC3)o2)C(=O)NC1=S | 23.1 µM [falling, single point] |  |  |
| O=C1C2CCN(CC2)C1Cc1ccccc1O (stereo unspecified) |  | 6.63 |  |
| Cc1ccc(N2C(=O)NC(=O)/C(=C\c3ccoc3)C2=O)cc1 | 16.4 µM [falling, single point] | -39.5 | 32.6 µM [falling, single point] |
| CN(C)C(=O)Oc1ccc(-c2nnco2)cc1 | 2.31 µM [rising, single point] |  |  |
| CCC(=NCCCO)c1c(O)n(-c2ccc(OC)cc2)c(=O)[nH]c1=O | 5.8 µM [falling, single point] | 3.56 |  |

An excerpt from above in order of SMILES length, rising:

| Structure (SMILES) | AC50 [1] | cell number change [%] | AC50 [2] |
| --- | --- | --- | --- |
| C1CCC(NC2CCCCC2)CC1 | 4.61 µM [rising, single point] | 15.8 |  |
| O=C1C2CCN(CC2)C1Cc1ccccc1O (stereo unspecified) |  | 6.63 |  |
| CN(C)C(=O)Oc1ccc(-c2nnco2)cc1 | 2.31 µM [rising, single point] |  |  |
| Cc1nc2ccccc2c(=O)n1-c1ccccc1[N+](=O)[O-] | 0.82 µM [falling, single point] | -4.42 |  |
| COc1ccc(C(=O)C2CCCN(Cc3ccc(F)cc3F)C2)cc1F (stereo unspecified) |  | -0.343 |  |
| Cc1ccc(N2C(=O)NC(=O)/C(=C\c3ccoc3)C2=O)cc1 | 16.4 µM [falling, single point] | -39.5 | 32.6 µM [falling, single point] |
| C=CCN1C(=O)/C(=C/c2ccc(N3CCOCC3)o2)C(=O)NC1=S | 23.1 µM [falling, single point] |  |  |
| O=C1NS(=O)c2cc([N+](=O)[O-])cc([N+](=O)[O-])c21 (stereo unspecified) | 2.31 µM [falling, single point] |  | 0.146 µM [falling, full curve, poor fit] |
| Cc1oc(-c2ccccc2Cl)nc1CN1C(=O)CN=C(c2ccccc2)c2ccccc21 |  | 31 | 2.31 µM [rising, full curve, poor fit] |
| C=C[C@]1(C)C[C@H]1[C@H](NP(=O)(c1ccccc1)c1ccccc1)c1ccccc1 |  |  | 6.51 µM [falling, single point] |
| CC(C)N1C(=O)NC(=O)C2(Cc3cc([N+](=O)[O-])ccc3N(C)C2c2ccccc2)C1=O (stereo unspecified) | 23.1 µM [falling, single point] | -17.6 |  |
| COC(=O)c1ccccc1OP(=O)(c1cccc([N+](=O)[O-])c1)c1cccc([N+](=O)[O-])c1 | 6.51 µM [falling, single point] | 5.29 |  |
| COC(=O)C1=C(c2ccc(F)cc2OCc2ccccc2)C[C@@H]2CC[C@H]1N2C(=O)NCc1ccc(F)cc1 | 2.91 µM [falling, single point] | 6.14 |  |

Additional compounds follow.

| Structure (SMILES) | AC50 [1] | cell number change [%] | AC50 [2] |
| --- | --- | --- | --- |
| COc1ccc(N2C(=O)CC(=O)NC2=O)cc1 | 0.82 µM [falling, full curve] | -15.6 | 0.00461 µM [falling, full curve, poor fit] |
| COc1ccc(-c2nc3ccccc3c(=O)n2-c2ccc(OC)cc2)cc1 | 29.1 µM [falling, single point] | -9.67 |  |
| Cn1c(NN=O)nc2ccccc21 | 18.4 µM [falling, partial curve] | -63.4 | 18.4 µM [falling, single point] |
| O=c1[nH]c(=O)n(-c2cccc3ccccc23)c(O)c1C=NCCCn1ccnc1 | 4.11 µM [falling, partial curve] | 35.5 | 4.61 µM [rising, partial curve, poor fit] |
| c1ccc(C2CC3CC4(CCCC4)N2O3)cc1 (stereo unspecified) | 0.231 µM [falling, full curve, poor fit] | -11.8 |  |
| NCC(CC(=O)O)C1CCCCC1 (stereo unspecified) | 2.59 µM [falling, full curve, poor fit] | -14.6 |  |
| CN1CC[C@@]23CCCC[C@@H]2[C@@H]1Cc1ccc(O)cc13 | 7.31 µM [falling, single point] | -4.11 | 6.51 µM [falling, single point] |
| CCCNS(=O)(=O)c1ccc(OCC(=O)N2CCN(Cc3ccccc3)CC2)cc1 | 5.17 µM [rising, full curve] | -18.3 |  |
| CCc1cc(=O)oc2c(C)c(OCC(=O)N3C[C@H]4C[C@@H](C3)c3cccc(=O)n3C4)ccc12 | 1.3 µM [rising, partial curve] | 23.3 |  |
| O=C(c1ccc(C(F)(F)F)cc1)C1CCCN(Cc2ccncc2)C1 (stereo unspecified) | 16.4 µM [falling, partial curve] | -31.7 | 16.4 µM [falling, single point] |
| O=C1NC(=O)C(=Cc2ccccc2OCCOc2ccc([N+](=O)[O-])cc2)C(=O)N1 |  | -7.33 | 0.731 µM [rising, single point] |
| O=C(NC(=S)N1C[C@H]2C[C@H](C1)c1cccc(=O)n1C2)c1ccc(Cl)cc1 |  | 21.7 |  |
| CCOC(=O)c1c(/N=C/C2C(=O)NC(=S)NC2=O)sc2c1CCC2 |  | -2.99 | 0.411 µM [falling, single point] |
| CC1(C)C2SCC(=O)N2CCN1CC(=O)NN (stereo unspecified) | 0.103 µM [falling, full curve, poor fit] | -10.5 |  |
| COC(=O)C1=C(c2ccc(-c3ccccc3)c(F)c2)C[C@@H]2CC[C@H]1N2C(=O)NCCNC(C)=O | 0.00461 µM [rising, full curve, poor fit] | 2.65 |  |
| O=c1c2ccccc2ccc2ccc(P(=O)(O)O)cc12 | 1.16 µM [rising, single point] |  |  |
| CC(N)Cc1c[nH]c2cc3c(cc12)OCCO3 (stereo unspecified) |  |  | 3.66 µM [falling, single point] |
| COC(=O)C1=C(c2ccc(F)cc2F)C[C@@H]2CC[C@H]1N2C(=O)NCCO | 6.51 µM [rising, single point] | 1.56 |  |
| O=C(c1cc2nc(-c3ccccc3)cc(-c3ccccc3)n2n1)N1CCC2(CC1)OCCO2 | 0.411 µM [rising, partial curve, poor fit] |  |  |

Source: PubChem BioAssay AID2685 (National Center for Advancing Translational Sciences (NCATS), 2010)
